Test results from US20190298661A1, “Transdermal Delivery of Phenethylamine Monoamine Releasers” (priority 2016, published 2019).

Test: Skin resistance after 4 h of iontophoresis or passive control
Parameters: species or system human

CC(N)Cc1cccc(F)c1 (centres unmarked) [PAL-353, 3-fluoroamphetamine]
decrease of skin resistance (after 4 h of current application (0.5 mA/cm^2)): 87.69±3.03% | decrease of skin resistance (passive control group, no current, 4 h): 18.47±6.40%
